For one substance, binding results are on record in patent US20100093623A1, “COMPOSITIONS AND METHODS FOR […]-LIKE RECEPTOR ACTIVITY AND USES THEREOF” (Burnham Institute for Medical Research, priority 2008, published 2010).

The assay addresses T1, (His)6-NLRP1 (NLR family, pyrin domain-containing 1), purified recombinant full-length protein from Sf21 cells (human) (UniProt Q9C000).
T1 sequence: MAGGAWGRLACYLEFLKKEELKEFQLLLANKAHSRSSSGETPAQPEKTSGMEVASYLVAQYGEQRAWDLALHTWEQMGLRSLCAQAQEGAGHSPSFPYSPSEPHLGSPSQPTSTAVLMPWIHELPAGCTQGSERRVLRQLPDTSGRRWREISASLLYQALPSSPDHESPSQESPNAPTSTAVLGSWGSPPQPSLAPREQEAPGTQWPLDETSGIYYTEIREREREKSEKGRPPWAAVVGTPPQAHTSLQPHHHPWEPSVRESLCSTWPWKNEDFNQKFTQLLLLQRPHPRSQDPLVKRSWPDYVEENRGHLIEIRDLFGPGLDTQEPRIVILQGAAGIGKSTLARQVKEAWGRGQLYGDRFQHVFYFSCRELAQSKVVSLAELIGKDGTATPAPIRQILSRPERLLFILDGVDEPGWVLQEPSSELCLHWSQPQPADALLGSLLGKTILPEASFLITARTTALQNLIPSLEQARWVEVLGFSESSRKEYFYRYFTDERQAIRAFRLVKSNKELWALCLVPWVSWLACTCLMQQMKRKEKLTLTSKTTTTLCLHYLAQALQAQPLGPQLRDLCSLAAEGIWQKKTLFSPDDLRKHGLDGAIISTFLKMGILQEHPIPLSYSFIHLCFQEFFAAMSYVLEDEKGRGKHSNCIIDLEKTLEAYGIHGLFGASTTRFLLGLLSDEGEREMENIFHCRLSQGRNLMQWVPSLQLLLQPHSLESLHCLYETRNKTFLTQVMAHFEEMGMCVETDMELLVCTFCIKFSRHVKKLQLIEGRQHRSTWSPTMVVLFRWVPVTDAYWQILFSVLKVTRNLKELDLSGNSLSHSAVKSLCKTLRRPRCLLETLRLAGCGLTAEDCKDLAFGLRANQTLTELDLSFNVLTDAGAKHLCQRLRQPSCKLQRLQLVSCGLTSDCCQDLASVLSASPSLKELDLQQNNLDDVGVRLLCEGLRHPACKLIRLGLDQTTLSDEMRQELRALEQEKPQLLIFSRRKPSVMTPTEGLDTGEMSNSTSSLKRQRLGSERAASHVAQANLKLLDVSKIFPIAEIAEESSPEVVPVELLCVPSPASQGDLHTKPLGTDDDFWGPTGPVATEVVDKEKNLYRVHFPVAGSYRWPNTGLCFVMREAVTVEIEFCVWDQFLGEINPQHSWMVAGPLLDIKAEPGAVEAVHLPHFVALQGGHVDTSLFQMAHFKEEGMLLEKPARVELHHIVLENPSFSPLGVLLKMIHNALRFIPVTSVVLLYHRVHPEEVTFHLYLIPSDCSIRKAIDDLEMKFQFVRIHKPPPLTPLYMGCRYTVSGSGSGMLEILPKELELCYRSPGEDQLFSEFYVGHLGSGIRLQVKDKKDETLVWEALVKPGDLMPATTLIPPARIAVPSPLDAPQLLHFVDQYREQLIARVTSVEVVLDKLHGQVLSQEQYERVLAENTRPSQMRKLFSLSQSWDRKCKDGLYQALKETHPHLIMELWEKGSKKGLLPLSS
The assay can be described thus: 2D native-PAGE/SDS-PAGE co-migration, purified proteins.

No constants are given. Whether binding was seen depends on the method and setting. Some results given as binding are weak or reduced against the parent protein; the word gives no strength. Where a sequence is shown, tags or fusion partners need not be part of it.

In the case of “GST-Bcl-XL (Bcl-XL lacking its C-terminal transmembrane domain, ~last 20 amino acids) (from UniProt P08515 1-218; Q07817 1-211)”, the binding result was “binds”.
